# Test results reported in PubChem BioAssay AID504467 (National Center for Advancing Translational Sciences (NCATS), 2011).
# Hit rate of the full screen: of about 330,000 compounds, about 7,700 (2.3%) were called active. This list was built around the results that the source calls inconclusive (neither active nor inactive); the mix of calls is not that of the screen. Calls come from the whole dose curve; as a rule, active = well fitted inhibition curve with a large enough effect; inconclusive = small, poorly fitted or top-dose-only effect, or effect the other way; inactive = flat fitted curve, though single readings scatter. A potency beside an inconclusive call is a rough fit, not a confirmed value.
# Test: qHTS screen for small molecules that inhibit ELG1-dependent DNA repair in human embryonic kidney (HEK293T) cells expressing luciferase-tagged ELG1; note: nearly all actives have a fitted effect of over 55% in size
# Settings: HEK293T ELG1-luciferase reporter, luminescence, 16 h, DNA damage induced by 5-fluorouridine; activity change, negative = inhibition: at 46.1 µM (top of the series)
# Procedure, shortened: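 Overnight (16 hr) co-exposure of 2,000 cells/well to 5-fluorouridine and compound at 37 °C preceded detection. Luciferase was quantified via ONE-Glo luminescence; loss of signal denotes inhibition.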
# % is set by controls: 0 for no effect and ±100 for the full control effect; potency is the fitted concentration of half-maximal effect.
Structure (SMILES),Potency,"activity change, negative = inhibition"
Cc1cc(C(=O)NNC(=O)COc2c(C)cc(Br)cc2C)n[nH]1,"inconclusive: 29.1 µM [activator, single point]",–
O=C(OCC(=O)N1CCCCCC1)c1ccccc1Br,"inconclusive: 8.2 µM [activator, partial curve]",–
Nn1c(SCC(=O)N2CCOCC2)nnc1-c1ccco1,"inconclusive: 20.6 µM [activator, partial curve, poor fit]",–
CCN(CC)S(=O)(=O)c1cc(C(=O)NC2=NCCS2)ccc1Cl,–,inactive: -3.83%
CCCC(=O)NC(=S)Nc1ccc(N2CCOCC2)c(Cl)c1,"inconclusive: 16.4 µM [activator, partial curve, poor fit]",–
CCOC(=O)c1c(C)[nH]c(N=Nc2ccccc2Cl)c1C,"inconclusive: 20.6 µM [activator, single point]",–
COc1ccc(C(=O)NC(=S)NC(C)(C)C)cc1Br,"inconclusive: 29.1 µM [activator, single point]",–
COc1cc2oc(=O)ccc2cc1[C@H](O)[C@@H](O)C(C)(C)O,–,inactive: 23%
O=C(c1ccc([N+](=O)[O-])s1)N1CCc2ccccc2C1,"inconclusive: 20.6 µM [inhibitor, single point]",–
COc1ccc(CNC(=O)C2CCC(=O)N(CCCN3CCCC3=O)C2)c(OC)c1 (stereo not given),–,inactive: -3.09%
CC(=O)c1ccccc1NC(=O)COC(=O)c1c(C)nn(-c2ccccc2)c1C,–,inactive: 0.389%
Cc1ccc2nc(-c3ccncc3)c(Nc3ccccc3)n2c1,–,inactive: 11.4%
O=C1CSC(c2ccccc2)N1c1cccnc1 (stereo not given),–,inactive: 5.45%
COc1ccc(CN(C)CC(O)COC(c2ccccc2)c2ccccc2)c(OC)c1OC (stereo not given),"inconclusive: 14.6 µM [inhibitor, partial curve]",–
COc1cccc(CN(C)C(=O)c2csc3c2CCCC3)c1OC,"inconclusive: 23.1 µM [inhibitor, single point]",–
CCc1ccc2c(COn3nnc4ccc(S(=O)(=O)N(C)C)cc43)cc(=O)oc2c1,"inconclusive: 20.6 µM [activator, single point]",–
COc1ccc(OC)c(S(=O)(=O)NCC(c2ccco2)N2CCc3ccccc3C2)c1 (stereo not given),"inconclusive: 5.8 µM [activator, partial curve, poor fit]",–
CCSc1nnc(NS(=O)(=O)c2ccc(C)cc2)s1,–,inactive: 6.37%
CCOC(=O)Nc1ccccc1C(=O)Nc1cc(C)cc(C)c1,"inconclusive: 25.9 µM [activator, partial curve, poor fit]",–
O=C(Nc1ccc(Cl)c(-c2nc3ccccc3[nH]2)c1)c1cccnc1,"inconclusive: 18.4 µM [inhibitor, single point]",–

# Two entries picked at random from the list so far, as already listed:
Structure (SMILES),Potency,"activity change, negative = inhibition"
CCOC(=O)c1c(C)[nH]c(N=Nc2ccccc2Cl)c1C,"inconclusive: 20.6 µM [activator, single point]",–
CC(=O)c1ccccc1NC(=O)COC(=O)c1c(C)nn(-c2ccccc2)c1C,–,inactive: 0.389%
